Data reported in patent publication US20110034426A1, “Method of Preventing Renal Disease and Treating Symptoms Thereof” (WISCONSIN ALUMNI RESEARCH FOUNDATION, priority 2009, published 2011).
Some entries share one result that the patent states for a list of compounds.

Test system: MRL/MpJ-Fas^lpr/J mice
Assay: Proteinuria in MRL/lpr mouse model of systemic lupus erythematosus / lupus nephritis
Type: in vivo
Settings: 1 ng 2MD
Procedure: Mice. […] Water was given ad libitum.
Proteinuria measurements. Proteinuria measurements were performed by putting gentle pressure on the bladder for spot urine analysis on a clean surface with a semi-quantitative dipstick (Combistix, Bayer). Mice were determined to have proteinuria when urinary protein output was 100 mg/dL or more. Urine was collected by placing the animals in metabolic cages and performing two-24 hr collections. Total protein was measured using a Bradford assay. (MM Bradford, Analytical Biochemistry 72: 248-254, 1976).

Q: `C=C1[C@H](O)CC(=C/C=C2\CCC[C@@]3(C)C2CCC3[C@@H](C)CCCC(C)(C)O)C[C@H]1O` (stereo partly drawn) [2MD, 2-methylene-19-nor-(20S)-1α,25-(OH)2D3] was tested. Which proteinuria incidence did it give?
A: 12-25%
